Source: PubChem BioAssay AID493014 (National Center for Advancing Translational Sciences (NCATS), 2011)
Screen size: about 340,000 compounds; about 170 (0.05%) were called active. The inconclusive results got no clear call from the source; some entries with a clear call stand among them for comparison. Calls come from the whole dose curve; as a rule, active = well fitted inhibition curve with a large enough effect in the signal ratio, with a control signal flat (not every such curve was filed as active); inconclusive = small, poorly fitted or top-dose-only effect, or effect the other way, or a change in a side signal; inactive = flat fitted curve, though single readings scatter; the % refers to the signal ratio. A potency beside an inconclusive call is a rough fit, not a confirmed value.
Potency is the fitted concentration of half-maximal effect.

Assay: qHTS Assay to Find Inhibitors of Chronic Active B-Cell Receptor Signaling;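 for activity change, negative = inhibition: plate controls were basal doxycycline-induced cells for no effect and cells given 10 µM MG132 for full effect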
Settings: ABC-DLBCL IkBa-CBG/CBR reporter, luminescence ratio (green luciferase fused to IkBa over red control in TMD8 lymphoma cells), 4 h; activity change, negative = inhibition: at 46.1 µM (top of the series)
Procedure, shortened: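 Doxycycline induced both beetle luciferases in TMD8 lymphoma cells; IKK-driven degradation limits the IkappaBalpha-fused green signal, while red luminescence normalises for cell number and nonspecific effects. Compounds tested up to 46 uM, 4 hrs.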
With `C=C(C)COc1ccc(-c2[nH]ncc2-c2ccc(Br)cc2)c(O)c1` the activity change, negative = inhibition was inconclusive: -1.4%.
With `O=C(CNC(=O)c1ccccc1Br)N/N=C/c1cccs1` the activity change, negative = inhibition was inconclusive: -17.2%.
For `CC(C)(CO)NC(=O)c1ccc2nc(Cc3cccc(Cl)c3)oc2c1`, the “activity change, negative = inhibition” value was inactive: -0.507%.
With `Cc1cc(NC(=O)CSc2ccc3nnc(-c4ccc(F)cc4)n3n2)no1` the “activity change, negative = inhibition” value was inactive: 4.56%.
In the case of `CCOc1ccc(Nc2nc3ccccc3n3nnnc23)cc1`, the Potency is reported as inconclusive: 14.1 µM [falling, partial curve].
With `CCCCNC(=O)Oc1cccc(N2CCCC2=O)c1` the “activity change, negative = inhibition” value was inactive: 1.13%.
In the case of `CCCCn1c2nc3ccccc3nc2c2c(=O)n(-c3ccccc3)cnc21`, the “activity change, negative = inhibition” value is reported as inactive: -2.45%.
For `O=C(CCCOc1ccc(Cl)cc1)N1CCCCCC1`, the “activity change, negative = inhibition” value was inactive: 7.63%.
With `Cc1sc2ncnc(N3CCC(C(=O)Nc4ccc(S(N)(=O)=O)cc4)CC3)c2c1C` the activity change, negative = inhibition was inconclusive: -0.0288%.
For `COc1ccc(CC(=O)OC(C)C(=O)NCc2ccc3c(c2)OCO3)cc1OC` (stereo unspecified), the “activity change, negative = inhibition” value was inactive: -5.53%.
For `Cc1cccc(/C=N/n2c(-c3ccccc3)n[nH]c2=S)c1O`, the “activity change, negative = inhibition” value was inactive: 6.21%.
In the case of `Cc1ccc(CSCC(=O)N2CCN(c3cc(Cl)ccc3C)CC2)cc1`, the “activity change, negative = inhibition” value is reported as inactive: 0.905%.
In the case of `CC1CCC(C(C)C)C(OCC(O)CNC(C)c2ccccc2)C1` (stereo unspecified), the Potency is reported as inconclusive: 15.8 µM [falling, partial curve, poor fit].
In the case of `O=C(CNc1ccccc1F)Nc1cccc2ccccc12`, the Potency is reported as inconclusive: 2.51 µM [falling, full curve, poor fit].
For `COc1ccc(OC)c(-c2cc(C(=O)Nc3cc(C)n(Cc4ccc(Cl)cc4)n3)no2)c1`, the “activity change, negative = inhibition” value was inactive: 0.0796%.
For `Cc1cc(C)n(-c2nnc3n2N=C(c2c[nH]c4ccccc24)CS3)n1`, the Potency was inconclusive: 1.64 µM [falling, partial curve, poor fit].
For `CCn1c(C)nc2cc(C(=O)NNC(=S)NC(=O)c3ccc(OC)cc3)ccc21`, the activity change, negative = inhibition was inconclusive: 7.88%.
For `CC(C)COc1cccc(C(=O)NC(=S)NCc2cccnc2)c1`, the Potency was inconclusive: 14.6 µM [falling, partial curve, poor fit].
For `CC(C)C[C@H](NC(=O)[C@@H]1Cc2ccccc2CN1)C(=O)Nc1ccc(C(C)C)cc1`, the activity change, negative = inhibition was inconclusive: 5.74%.
For `Cc1oc(-c2ccc3c(c2)OCCO3)cc1C(=O)NC(Cc1ccccc1)C(=O)O` (stereo unspecified), the Potency was inconclusive: 14.1 µM [activator, partial curve, poor fit].
In the case of `Cc1ccc(-c2csc(N3CCC[C@@H]3C(=O)NCCn3c(C(F)(F)F)nc4ccccc43)n2)cc1`, the activity change, negative = inhibition is reported as inconclusive: 3.25%.
For `CCOc1ccccc1NC(=O)c1nc(S(=O)(=O)Cc2ccccc2)ncc1Cl`, the activity change, negative = inhibition was inconclusive: 0.5%.
For `CCCNC(=O)CSc1nnc(-c2ccco2)n1C`, the “activity change, negative = inhibition” value was inactive: 1.87%.
For `COc1cccc(Cn2c(=O)sc3ccccc3c2=O)c1`, the Potency was inconclusive: 35.5 µM [falling, single point].
In the case of `Cc1cccc2cc(C(c3nnnn3Cc3ccccc3)N3CCN(c4ccccc4)CC3)c(=O)[nH]c12` (stereo unspecified), the activity change, negative = inhibition is reported as inconclusive: 3.38%.
For `CC(=O)c1cccc(N(CC(=O)N2CCCCC2)S(C)(=O)=O)c1`, the activity change, negative = inhibition was inconclusive: 10.2%.
In the case of `COc1cc(C(=S)N2CCCC2)cc(OC)c1OC`, the “activity change, negative = inhibition” value is reported as inactive: 2.12%.
For `CC(C)Cc1nnc(NC(=O)c2ccc3c(c2)NC(=O)C(C)S3)s1` (stereo unspecified), the activity change, negative = inhibition was inconclusive: 15.8%.
In the case of `CCOc1ccc2c(c1)C(C)=CC(C)(C)N2C(=O)Nc1ccccc1`, the activity change, negative = inhibition is reported as inconclusive: -4.05%.
For `COc1ccc2oc(C(=O)Nc3ccc(S(=O)(=O)N(C)C4CCN(C)CC4)cc3)c(C)c2c1`, the Potency was inconclusive: 35.5 µM [falling, single point].
For `COc1ccccc1CNC(=O)/C=C/c1ccc(S(=O)(=O)N2CCOCC2)cc1`, the activity change, negative = inhibition was inconclusive: -10.1%.
In the case of `O=C(O)CCN1C(=O)CC2(CCCCC2)C1=O`, the activity change, negative = inhibition is reported as inconclusive: 17.6%.
With `CC(=O)c1cccc(NC(=O)C(OC(=O)/C=C/c2ccc3c(c2)OCO3)c2ccccc2)c1` (stereo unspecified) the activity change, negative = inhibition was inconclusive: 3.61%.
In the case of `N#Cc1ccc(Cl)cc1NC(=O)CNc1cccc(S(=O)(=O)N2CCCC2)c1`, the Potency is reported as inconclusive: 13 µM [falling, partial curve, poor fit].
With `Cn1nnnc1Sc1ncnc2scc(-c3ccc(Br)cc3)c12` the Potency was inconclusive: 3.26 µM [falling, full curve].
With `O=C(Oc1cc(=O)oc2ccccc12)c1cccnc1Cl` the Potency was inconclusive: 0.366 µM [falling, full curve, poor fit].
In the case of `CCOc1cc(/C=C/c2ccc3cccc([N+](=O)[O-])c3n2)cc(Cl)c1O`, the Potency is reported as inconclusive: 3.26 µM [falling, partial curve, poor fit].
For `CCCn1c2ccccc2c2cnn(CC(=O)NC3CCCCC3C)c(=O)c21` (stereo unspecified), the “activity change, negative = inhibition” value was inactive: 3.34%.
With `Cc1cccc(N(C(=O)c2snc(C(N)=O)c2N)C(C(=O)NCc2ccccc2)c2ccncc2)c1` (stereo unspecified) the Potency was inconclusive: 2.82 µM [rising, partial curve, poor fit].
With `Cc1cc(-n2c(C)cc(C(=O)COc3cc(F)ccc3[N+](=O)[O-])c2C)no1` the activity change, negative = inhibition was inconclusive: 3.87%.
For `O=C(NC1CCCCCC1)c1ccc([N+](=O)[O-])s1`, the activity change, negative = inhibition was inconclusive: -19.1%.
In the case of `O=[N+]([O-])c1ccc(-c2ncc(-c3ccc(Br)cc3)o2)cc1`, the activity change, negative = inhibition is reported as inconclusive: 8.29%.
For `Cc1nc2ccccc2c(=O)n1/N=C/c1ccccc1`, the activity change, negative = inhibition was inconclusive: -16.6%.
With `COCC(C)N=C1NN=C(c2ccc(NC(C)=O)cc2)CS1` (stereo unspecified) the “activity change, negative = inhibition” value was inactive: -11.3%.
For `CC1CCN(C(=O)COC(=O)c2cc3ccccc3cc2O)CC1`, the activity change, negative = inhibition was inconclusive: -19.9%.
For `COC(=O)c1ccccc1NC(=O)Nc1ccc(Br)cn1`, the Potency was inconclusive: 12.6 µM [falling, partial curve].
With `COc1ccccc1C1C(C(N)=O)=C(C)Nc2nc(CCCO)nn21` (stereo unspecified) the activity change, negative = inhibition was inconclusive: 1.48%.
In the case of `Cc1ccc2nc(C(=O)O)c(C(=O)O)nc2c1`, the activity change, negative = inhibition is reported as inconclusive: 9.18%.
With `COc1cc(C)nc(N2CCC(C(=O)NC3CCCCC3)CC2)n1` the activity change, negative = inhibition was inconclusive: 0.458%.
For `CCOc1cccc2cc(-c3nnc(Nc4ccc(F)c(Cl)c4)s3)c(=O)oc12`, the Potency was inconclusive: 12.6 µM [falling, single point].
With `Cc1ccc(C)c(S(=O)(=O)N2CCC(c3nc4c(nnn4Cc4ccc5c(c4)OCCO5)c(=O)[nH]3)CC2)c1` the activity change, negative = inhibition was inconclusive: 9.2%.
